Paper doi:10.1101/2025.01.26.634929

Chains of the proteins cited; added tags and fusions are not shown.
UniProt P35637: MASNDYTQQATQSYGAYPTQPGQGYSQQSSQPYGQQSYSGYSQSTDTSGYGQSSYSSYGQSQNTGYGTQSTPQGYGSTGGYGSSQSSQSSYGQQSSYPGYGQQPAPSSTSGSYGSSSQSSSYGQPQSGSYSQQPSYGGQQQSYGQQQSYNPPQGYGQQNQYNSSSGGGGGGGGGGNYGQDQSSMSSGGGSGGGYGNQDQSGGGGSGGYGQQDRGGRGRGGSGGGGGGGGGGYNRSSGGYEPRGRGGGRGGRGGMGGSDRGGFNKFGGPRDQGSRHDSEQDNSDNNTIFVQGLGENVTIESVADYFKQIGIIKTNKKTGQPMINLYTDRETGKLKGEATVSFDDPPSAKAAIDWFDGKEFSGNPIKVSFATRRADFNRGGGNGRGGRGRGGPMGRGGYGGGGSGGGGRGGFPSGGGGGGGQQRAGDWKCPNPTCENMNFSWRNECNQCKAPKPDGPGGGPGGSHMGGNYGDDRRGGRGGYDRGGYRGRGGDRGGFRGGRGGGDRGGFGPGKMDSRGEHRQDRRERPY

Biological target: AGO1 fused with C-terminal Flag- and HA-epitope tags (e-AGO1) (human) (UniProt Q9UL18)
Assay: affinity purification with mass spectrometry

Substance | binding
FUS (from UniProt P35637 1-526) | binds
HNRNPK (from UniProt P61978 1-463) | binds

These are yes or no findings as the source states them, for the method shown. In cells and extracts the contact can be indirect. Here binding means that the protein was enriched with, or labelled near, the bait; the list need not be complete.
